Binding data for two molecules are collected here from publication PMC7037545.

No constants are given. Whether binding was seen depends on the method and setting. For some assays here: In cells and extracts the contact can be indirect. Some results given as binding are weak or reduced against the parent protein; the word gives no strength. Where a sequence is shown, tags or fusion partners need not be part of it.

The target in assay [1] is T1, ABF2 (abscisic acid (ABA)-responsive element (ABRE)-binding transcription factor), pGBKT7-DEST (BD) fusion (Arabidopsis thaliana (Col-0 cDNA)) (UniProt Q9M7Q4).
T1 sequence: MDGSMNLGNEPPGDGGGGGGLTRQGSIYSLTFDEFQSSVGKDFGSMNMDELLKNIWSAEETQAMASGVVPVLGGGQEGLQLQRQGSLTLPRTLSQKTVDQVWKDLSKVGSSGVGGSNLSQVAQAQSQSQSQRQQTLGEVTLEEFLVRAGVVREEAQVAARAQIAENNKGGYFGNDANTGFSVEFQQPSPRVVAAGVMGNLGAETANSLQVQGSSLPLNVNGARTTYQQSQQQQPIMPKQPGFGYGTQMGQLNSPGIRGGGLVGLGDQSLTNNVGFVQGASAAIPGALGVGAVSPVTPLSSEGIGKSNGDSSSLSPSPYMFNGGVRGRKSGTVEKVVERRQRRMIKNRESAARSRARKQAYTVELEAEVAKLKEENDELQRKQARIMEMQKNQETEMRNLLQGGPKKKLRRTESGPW
Kind of assay: two-hybrid; yeast strain AH109 co-transformed with AD (DELLA) and BD (ABF2 or its fragments) constructs; growth on SD medium lacking Trp, Leu, His and Ade, 30 °C, 2-5 days; three dilutions spotted.

In assay [2] the target is T2, ABF2-YFP^C (pEarleyGate202-YC) (Arabidopsis thaliana (Col-0 cDNA)) (UniProt Q9M7Q4).
T2 sequence: T1 sequence
Kind of assay: split reporter; BiFC: YFP^N and YFP^C fusions co-infiltrated into Nicotiana benthamiana leaves by Agrobacterium GV3101; YFP imaged by confocal microscopy 48 h after infiltration.

B1: RGL1 (RGA-LIKE1), pGADT7-DEST (AD) fusion (protein, UniProt Q9C8Y3 1-511)
chain: MKREHNHRESSAGEGGSSSMTTVIKEEAAGVDELLVVLGYKVRSSDMADVAHKLEQLEMVLGDGISNLSDETVHYNPSDLSGWVESMLSDLDPTRIQEKPDSEYDLRAIPGSAVYPRDEHVTRRSKRTRIESELSSTRSVVVLDSQETGVRLVHALLACAEAVQQNNLKLADALVKHVGLLASSQAGAMRKVATYFAEGLARRIYRIYPRDDVALSSFSDTLQIHFYESCPYLKFAHFTANQAILEVFATAEKVHVIDLGLNHGLQWPALIQALALRPNGPPDFRLTGIGYSLTDIQEVGWKLGQLASTIGVNFEFKSIALNNLSDLKPEMLDIRPGLESVAVNSVFELHRLLAHPGSIDKFLSTIKSIRPDIMTVVEQEANHNGTVFLDRFTESLHYYSSLFDSLEGPPSQDRVMSELFLGRQILNLVACEGEDRVERHETLNQWRNRFGLGGFKPVSIGSNAYKQASMLLALYAGADGYNVEENEGCLLLGWQTRPLIATSAWRINRVE
For B1, in assay [1], the binding result is given as “binds”.

B2: RGL1, BiFC fusion (YFP fragment) (protein, UniProt Q9C8Y3 1-511)
chain: B1 chain
Turning to B2, the binding result in assay [2] is reported as “binds”.
